Article PMC5041976

T1: HA-TCF21 (human) (UniProt O43680)
T1 sequence: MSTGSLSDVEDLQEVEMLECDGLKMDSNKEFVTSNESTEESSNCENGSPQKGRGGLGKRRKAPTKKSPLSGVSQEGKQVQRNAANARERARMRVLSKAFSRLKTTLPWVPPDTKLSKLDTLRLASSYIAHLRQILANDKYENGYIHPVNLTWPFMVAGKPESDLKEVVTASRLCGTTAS


Experiments:
[1] = molecular target: T1, HA-TCF21 (human); experiment: co-IP; HEK 293T cells co-transfected with two tagged proteins; IP by one tag (anti-GFP, anti-HA or anti-Flag), Western blot by the other tag; lysis in 50 mM Tris-HCl pH 7.4, 150 mM NaCl, 0.1% SDS, 1% NP-40, 0.5% sodium deoxycholate
[2] = molecular target: GST-ERα Δ2; experiment: pull-down; GST pull-down in vitro: purified His-TCF21 incubated with immobilized GST-ERα Δ2 or GST alone; bound proteins by Western blot (Pierce GST Protein Interaction Pull-Down Kit); both purified

binding [1]	binding [2]	Molecule
no binding	–	Flag-tagged ERα Δ1 (domain or fragment)
binds	–	Flag-tagged ERα Δ2 (domain or fragment)

The next lines start with the molecule.

Molecule	binding [1]	binding [2]
Flag-tagged ERα Δ3 (domain or fragment)	no binding	–
His-TCF21 (protein, UniProt O43680 1-179) MSTGSLSDVEDLQEVEMLECDGLKMDSNKEFVTSNESTEESSNCENGSPQKGRGGLGKRRKAPTKKSPLSGVSQEGKQVQRNAANARERARMRVLSKAFSRLKTTLPWVPPDTKLSKLDTLRLASSYIAHLRQILANDKYENGYIHPVNLTWPFMVAGKPESDLKEVVTASRLCGTTAS	–	binds

No constants are given. Whether binding was seen depends on the method and setting. A result given as binding can be weak or reduced; the word gives no strength. Sequences can lack the tags named with a protein. For some of these results: Binding seen in cells or lysates may run through a third protein.
